Assay: peptide synthesis
Conditions: lipidation step, HPLC Method 1, several disulfide bridges, sequence written open

## B(1-29)-B22K((eps)hexadecandioyl-gGlu)-B29H-TGLGSGR-A(1-21)-A18Q-A21G Human insulin
  purity (crude or final not stated): 99.2%
